Measurements: patent publication EP4628505A1 (Genor Biopharma Co., Ltd., dated 2025)
Residue numbers refer to the chain shown, from its start. Results are given in words; binding and its absence hold for the method and conditions named. Some binding calls cover weakened binding; strength is not graded here.

T1: cynomolgus monkey CTLA4 (Acro Biosystem, Catlog #Ct4-C82E5) (cynomolgus monkey (Macaca fascicularis)) (UniProt G7PL88)
T1 sequence: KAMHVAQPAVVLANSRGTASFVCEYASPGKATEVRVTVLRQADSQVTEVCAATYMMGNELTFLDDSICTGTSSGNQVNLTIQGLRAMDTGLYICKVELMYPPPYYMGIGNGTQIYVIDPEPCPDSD

B1: GBD008-S004 (antibody, V domains shown)
VH: EVQLVESGGGLVQAGGSLRLSCLASGRTFSSYDMGWFRQAPGKEREFVAAISWGGVNTYYADSVKGRFTISRDNAKNTVYLQMNSLKPEDTAVYYCARGSAPYSSSRSSAQETYAQWGQGTQVTVSS
notes: Heavy chain-only antibody (VHH-Fc), no light chain
B2: GBD008-hS004-5 (antibody, V domains shown)
VH: B1 VH with A14P, L23A, V79L, K87R, P88A, Q122L
notes: Humanized heavy chain-only antibody (VHH-Fc), no light chain
B3: GBD008-S019 (antibody, V domains shown)
VH: QVQLVESGGGLVQPGGSLTLSCAASGFTFSSYTMAWYRQAPGKEREVVAGISRSGGTTNYGDSVKGRFTISRDNAKNTVYLQMNSLKPEDTAVYYCRAVSDYWGQGTQVTVSS
notes: Heavy chain-only antibody (VHH-Fc), no light chain; also called GBD008-5019
B4: GBD008-hS019-4 (antibody, V domains shown)
VH: B3 VH with Q1E, V5L, T19R, A75S, V79L, K87R, P88A, Q108L
notes: as for B2
B5: GBD008-hS005-3 (antibody, V domains shown)
VH: EVQLVESGGGLVQPGGSLRLSCAASGRTASSNAMAWVRQAPGKEREFVSAISATGGLTAYADSVKGRFTISRDNSKNTLYLQMNSLRAEDTAVYYCAVGRERWYLRHTENEYDYWGQGTLVTVSS
notes: as for B2
B6: GBD008-hS005-3-2 (antibody, V domains shown)
VH: B5 VH with V37F
notes: as for B2

Each binder was assayed against T1, cynomolgus monkey CTLA4 (Acro Biosystem, Catlog #Ct4-C82E5) (cynomolgus monkey (Macaca fascicularis)) (assay: ELISA, plate coated with 1 ug/ml cynomolgus monkey CTLA4).

binding, binds:
B1
B2
B3
B4
B5
B6
